Where a chain is given by its changes, count along the chain named. Results are given in words; binding and its absence hold for the method and conditions named. Binding seen in cells or lysates may run through a third protein. Some binding calls cover weakened binding; strength is not graded here. Tags and fused reporters may be left off the sequences shown. Each block holds one molecule with its values, some of them ahead of it.
Experiments:
[1] = target: T1, GST-PIF3mAD (Arabidopsis thaliana) (UniProt O80536); test: pull-down; GST fusion proteins immobilised on glutathione Sepharose beads; in vitro translated PHYA-HA or PHYB-HA holoproteins (20 µM PCB) incubated in E wash buffer (E buffer: 50 mM Tris-HCl pH 7.5, 100 mM NaCl, 1 mM EDTA, 1 mM EGTA, 1% DMSO, 2 mM DTT; with 0.1% IGEPAL CA-630) for 2 h at 4 °C; in R light (Pfr), also done in FR light (Pr); bound fractions detected by anti-HA immunoblot; only the target purified
T1 sequence: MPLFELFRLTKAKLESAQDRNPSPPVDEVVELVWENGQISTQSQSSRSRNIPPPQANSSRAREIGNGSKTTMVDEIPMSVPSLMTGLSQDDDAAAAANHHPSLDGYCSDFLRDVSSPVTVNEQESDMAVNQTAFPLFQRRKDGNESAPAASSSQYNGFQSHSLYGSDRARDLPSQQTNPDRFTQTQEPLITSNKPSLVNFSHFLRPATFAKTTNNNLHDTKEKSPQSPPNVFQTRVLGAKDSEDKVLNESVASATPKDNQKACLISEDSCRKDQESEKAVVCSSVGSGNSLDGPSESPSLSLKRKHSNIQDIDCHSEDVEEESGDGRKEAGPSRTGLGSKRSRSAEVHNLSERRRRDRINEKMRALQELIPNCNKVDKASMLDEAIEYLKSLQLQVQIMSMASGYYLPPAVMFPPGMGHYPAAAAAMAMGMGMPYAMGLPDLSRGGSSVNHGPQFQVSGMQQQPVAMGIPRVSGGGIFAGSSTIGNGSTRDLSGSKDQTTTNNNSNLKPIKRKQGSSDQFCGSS

Amino acid sequences for entries named in this document (tags omitted).
UniProt P14713: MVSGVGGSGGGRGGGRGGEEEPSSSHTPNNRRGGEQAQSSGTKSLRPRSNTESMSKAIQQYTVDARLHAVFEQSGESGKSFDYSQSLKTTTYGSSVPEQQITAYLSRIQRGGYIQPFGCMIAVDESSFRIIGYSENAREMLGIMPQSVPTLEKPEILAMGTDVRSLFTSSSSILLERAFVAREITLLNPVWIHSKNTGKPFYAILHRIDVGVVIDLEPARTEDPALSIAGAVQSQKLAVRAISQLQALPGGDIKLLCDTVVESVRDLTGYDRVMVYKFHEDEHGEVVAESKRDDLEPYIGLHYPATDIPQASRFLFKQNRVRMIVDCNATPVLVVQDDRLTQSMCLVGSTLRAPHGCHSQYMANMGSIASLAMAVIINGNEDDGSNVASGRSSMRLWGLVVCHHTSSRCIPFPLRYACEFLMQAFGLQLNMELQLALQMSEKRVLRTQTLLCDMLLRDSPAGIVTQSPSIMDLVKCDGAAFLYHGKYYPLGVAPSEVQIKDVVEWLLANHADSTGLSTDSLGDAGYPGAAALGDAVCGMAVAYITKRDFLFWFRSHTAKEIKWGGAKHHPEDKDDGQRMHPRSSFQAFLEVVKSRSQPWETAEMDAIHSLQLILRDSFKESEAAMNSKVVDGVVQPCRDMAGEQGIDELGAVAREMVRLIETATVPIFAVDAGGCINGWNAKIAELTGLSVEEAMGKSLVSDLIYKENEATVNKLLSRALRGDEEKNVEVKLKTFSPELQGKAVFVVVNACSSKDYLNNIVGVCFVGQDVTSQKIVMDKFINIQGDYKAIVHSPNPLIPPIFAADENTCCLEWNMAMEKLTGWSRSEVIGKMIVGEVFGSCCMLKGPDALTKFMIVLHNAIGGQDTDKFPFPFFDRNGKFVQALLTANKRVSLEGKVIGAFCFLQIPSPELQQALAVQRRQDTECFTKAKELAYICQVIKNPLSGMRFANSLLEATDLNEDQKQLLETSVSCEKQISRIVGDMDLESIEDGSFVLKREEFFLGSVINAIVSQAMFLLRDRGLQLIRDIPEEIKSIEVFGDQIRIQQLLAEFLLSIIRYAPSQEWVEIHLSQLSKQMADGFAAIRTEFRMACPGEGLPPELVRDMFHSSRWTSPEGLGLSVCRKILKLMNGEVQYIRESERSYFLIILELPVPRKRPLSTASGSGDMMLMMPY

[2] = target: T2, GST-PIF3 (Arabidopsis thaliana) (UniProt O80536); test: as above
T2 sequence: T1 sequence with A93F, A94V, A95P, A96W, A97L

binding [1]: binds | binding [2]: binds
Molecule: PHYB-HA (from UniProt P14713 1-1172) (receptor)

binding [1]: binds | binding [2]: binds
B1: PHYA-HA (receptor, UniProt P14712 1-1122)
chain: MSGSRPTQSSEGSRRSRHSARIIAQTTVDAKLHADFEESGSSFDYSTSVRVTGPVVENQPPRSDKVTTTYLHHIQKGKLIQPFGCLLALDEKTFKVIAYSENASELLTMASHAVPSVGEHPVLGIGTDIRSLFTAPSASALQKALGFGDVSLLNPILVHCRTSAKPFYAIIHRVTGSIIIDFEPVKPYEVPMTAAGALQSYKLAAKAITRLQSLPSGSMERLCDTMVQEVFELTGYDRVMAYKFHEDDHGEVVSEVTKPGLEPYLGLHYPATDIPQAARFLFMKNKVRMIVDCNAKHARVLQDEKLSFDLTLCGSTLRAPHSCHLQYMANMDSIASLVMAVVVNEEDGEGDAPDATTQPQKRKRLWGLVVCHNTTPRFVPFPLRYACEFLAQVFAIHVNKEVELDNQMVEKNILRTQTLLCDMLMRDAPLGIVSQSPNIMDLVKCDGAALLYKDKIWKLGTTPSEFHLQEIASWLCEYHMDSTGLSTDSLHDAGFPRALSLGDSVCGMAAVRISSKDMIFWFRSHTAGEVRWGGAKHDPDDRDDARRMHPRSSFKAFLEVVKTRSLPWKDYEMDAIHSLQLILRNAFKDSETTDVNTKVIYSKLNDLKIDGIQELEAVTSEMVRLIETATVPILAVDSDGLVNGWNTKIAELTGLSVDEAIGKHFLTLVEDSSVEIVKRMLENALEGTEEQNVQFEIKTHLSRADAGPISLVVNACASRDLHENVVGVCFVAHDLTGQKTVMDKFTRIEGDYKAIIQNPNPLIPPIFGTDEFGWCTEWNPAMSKLTGLKREEVIDKMLLGEVFGTQKSCCRLKNQEAFVNLGIVLNNAVTSQDPEKVSFAFFTRGGKYVECLLCVSKKLDREGVVTGVFCFLQLASHELQQALHVQRLAERTAVKRLKALAYIKRQIRNPLSGIMFTRKMIEGTELGPEQRRILQTSALCQKQLSKILDDSDLESIIEGCLDLEMKEFTLNEVLTASTSQVMMKSNGKSVRITNETGEEVMSDTLYGDSIRLQQVLADFMLMAVNFTPSGGQLTVSASLRKDQLGRSVHLANLEIRLTHTGAGIPEFLLNQMFGTEEDVSEEGLSLMVSRKLVKLMNGDVQYLRQAGKSSFIITAELAAANK
modifications: phycocyanobilin chromophore, conjugated
